Data reported in article doi:10.1101/2024.04.16.588673 (bioRxiv, 2024).
No constants are given. Whether binding was seen depends on the method and setting. In cells and extracts the contact can be indirect. Some results given as binding are weak or reduced against the parent protein; the word gives no strength.

Protein sequences, listed by entry. Tags and fused reporters are not part of them. Residues count along the entry.
UniProt Q03431, residues 27-593: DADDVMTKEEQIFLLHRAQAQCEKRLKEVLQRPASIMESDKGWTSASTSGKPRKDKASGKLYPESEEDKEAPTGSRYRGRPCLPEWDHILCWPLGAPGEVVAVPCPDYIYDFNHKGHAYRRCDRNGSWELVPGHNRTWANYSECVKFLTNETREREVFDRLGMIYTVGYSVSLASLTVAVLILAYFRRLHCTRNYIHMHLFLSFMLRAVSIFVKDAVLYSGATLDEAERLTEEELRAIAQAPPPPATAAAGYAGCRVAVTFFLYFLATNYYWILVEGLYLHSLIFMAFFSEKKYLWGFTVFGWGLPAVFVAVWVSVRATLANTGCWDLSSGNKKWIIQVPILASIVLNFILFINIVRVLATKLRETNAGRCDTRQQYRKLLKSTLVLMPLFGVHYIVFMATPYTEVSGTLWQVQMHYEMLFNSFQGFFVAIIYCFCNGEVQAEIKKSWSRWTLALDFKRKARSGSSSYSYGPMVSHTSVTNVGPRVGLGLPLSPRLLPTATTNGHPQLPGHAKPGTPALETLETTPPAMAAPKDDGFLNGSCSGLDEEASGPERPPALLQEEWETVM
UniProt O60894, residues 27-148: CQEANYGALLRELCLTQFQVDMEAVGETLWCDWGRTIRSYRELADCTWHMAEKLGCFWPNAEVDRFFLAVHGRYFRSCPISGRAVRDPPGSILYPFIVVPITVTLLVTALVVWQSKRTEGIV
UniProt P32121: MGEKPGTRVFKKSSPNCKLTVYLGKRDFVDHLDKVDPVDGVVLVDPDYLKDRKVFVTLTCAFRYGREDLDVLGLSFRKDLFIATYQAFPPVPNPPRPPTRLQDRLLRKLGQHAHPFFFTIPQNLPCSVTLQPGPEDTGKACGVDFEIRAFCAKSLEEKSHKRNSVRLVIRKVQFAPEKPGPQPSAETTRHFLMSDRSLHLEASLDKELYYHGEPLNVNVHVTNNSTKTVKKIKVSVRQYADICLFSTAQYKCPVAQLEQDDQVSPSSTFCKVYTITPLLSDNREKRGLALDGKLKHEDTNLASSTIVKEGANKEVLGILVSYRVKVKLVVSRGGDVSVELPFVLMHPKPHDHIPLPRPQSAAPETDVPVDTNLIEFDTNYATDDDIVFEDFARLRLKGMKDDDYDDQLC

Assays:
[1] = biological target: parathyroid hormone 1 receptor (PTH1R), C-tagged Citrine (human) (UniProt Q03431); experiment: FRET or BRET
[2] = biological target: PTH1R of the PathHunter CHO-K1 PTH1R β-arrestin cell line (UniProt Q03431); experiment: split reporter

Substance | binding [1] | binding [2]
receptor activity-modifying protein 1 (RAMP1), C-tagged Cerulean (from UniProt O60894 27-148) | no binding | 
β-arrestin-2 of the PathHunter CHO-K1 PTH1R β-arrestin cell line (from UniProt P32121 1-409) |  | binds
